Amino acid sequences for entries named in this document (tags omitted). Residues count along the entry.
UniProt P00761, 9-231: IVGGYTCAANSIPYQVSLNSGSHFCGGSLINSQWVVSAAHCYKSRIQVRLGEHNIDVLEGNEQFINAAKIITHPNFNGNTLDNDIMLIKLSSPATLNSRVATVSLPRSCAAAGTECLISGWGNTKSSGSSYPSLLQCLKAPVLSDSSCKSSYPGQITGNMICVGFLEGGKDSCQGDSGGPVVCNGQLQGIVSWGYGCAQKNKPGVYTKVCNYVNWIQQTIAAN

According to patent publication US7119094B1, “Substituted polycyclic aryl and heteroarpyl pyrazinones useful for selective inhibition of the coagulation cascade” (Warner-Lambert Company, priority 2000, dated 2006):

Biological target: T1, Trypsin (type 1× from porcine pancreas) (Sus scrofa, UniProt P00761)
T1 construct: Trypsin (5 ug/ml; type 1× from porcine pancreas); purchased Sigma, St. Louis Mo; host or cells: porcine pancreas
Assay: Trypsin Assay
Assay type: biochemical
Parameters: concentration or dose not given beside the values

COCCNc1nc(Cl)c(-c2ccccc2)n(CC(=O)NCc2ccc(C(=N)N)cc2)c1=O [1507-33]
% Inhibition Trypsin II @ 1: 2% @ 1
